Patent publication US20240277868A1
Results are given in words; binding and its absence hold for the method and conditions named. For part of these data: In cells and extracts the contact can be indirect. Some results given as binding are weak or reduced against the parent protein; the word gives no strength.

Sequences of proteins named here, by UniProt entry; tags and fusion partners are left off. A change or cut given only in a name is not applied to a line headed by its entry. Residues count along the entry.
UniProt P02545, residues 1-646: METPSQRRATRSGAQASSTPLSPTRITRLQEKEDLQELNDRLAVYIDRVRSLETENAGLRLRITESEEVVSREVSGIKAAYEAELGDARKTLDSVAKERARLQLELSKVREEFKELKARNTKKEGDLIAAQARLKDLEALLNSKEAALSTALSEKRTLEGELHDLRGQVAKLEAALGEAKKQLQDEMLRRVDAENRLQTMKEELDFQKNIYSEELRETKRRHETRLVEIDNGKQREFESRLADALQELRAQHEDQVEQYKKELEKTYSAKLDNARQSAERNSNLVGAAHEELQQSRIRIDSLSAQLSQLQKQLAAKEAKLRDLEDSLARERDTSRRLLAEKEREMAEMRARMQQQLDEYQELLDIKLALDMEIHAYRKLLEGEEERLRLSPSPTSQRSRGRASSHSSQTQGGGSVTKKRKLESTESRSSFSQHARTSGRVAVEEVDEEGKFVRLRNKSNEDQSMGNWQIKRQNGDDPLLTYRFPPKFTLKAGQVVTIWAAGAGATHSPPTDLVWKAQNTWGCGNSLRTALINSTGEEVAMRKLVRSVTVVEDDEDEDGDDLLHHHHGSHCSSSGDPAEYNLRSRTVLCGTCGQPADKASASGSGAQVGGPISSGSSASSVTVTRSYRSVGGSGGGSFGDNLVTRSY
UniProt Q8N6T7: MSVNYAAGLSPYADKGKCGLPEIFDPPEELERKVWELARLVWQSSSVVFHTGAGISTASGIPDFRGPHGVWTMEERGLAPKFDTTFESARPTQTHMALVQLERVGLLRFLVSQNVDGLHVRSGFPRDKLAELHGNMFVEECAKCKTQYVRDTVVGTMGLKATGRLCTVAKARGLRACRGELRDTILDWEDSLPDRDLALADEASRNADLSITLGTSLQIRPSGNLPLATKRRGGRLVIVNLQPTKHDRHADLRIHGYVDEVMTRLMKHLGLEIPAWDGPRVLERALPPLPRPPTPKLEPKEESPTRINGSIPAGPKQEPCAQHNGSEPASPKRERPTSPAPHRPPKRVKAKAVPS

Key:
Prelamin-A/C (human) [1] = molecular target: Prelamin-A/C (human) (UniProt P02545); experiment: co-IP with SIRT6 antibodies and LMNA Western blot, and reciprocal co-IP, cumate SIRT6 fibroblasts
Prelamin-A/C (human) [2] = molecular target: Prelamin-A/C (human) (UniProt P02545); experiment: SIRT6 IP followed by Western blot with antibodies to LMNA
Prelamin-A/C (human) [3] = molecular target: Prelamin-A/C (human) (UniProt P02545); experiment: LMNA IP followed by Western blot with antibodies to SIRT6

Measured: binding

SIRT6 N308K A313S variant (centSIRT6) (from UniProt Q8N6T7 2-355) (enzyme)
binds: Prelamin-A/C (human) [1] | Prelamin-A/C (human) [2] | Prelamin-A/C (human) [3]

wild type SIRT6 (from UniProt Q8N6T7 2-355) (enzyme)
binds: Prelamin-A/C (human) [1] | Prelamin-A/C (human) [2] | Prelamin-A/C (human) [3]
